Substitutions are numbered along the chain they refer to. Where two headings read alike, the source gives them in different places. No constants are given. Whether binding was seen depends on the method and setting. In cells and extracts the contact can be indirect. Some binding calls cover weakened binding; strength is not graded here. Where a sequence is shown, tags or fusion partners need not be part of it.
B1: TBC1D6 (protein, UniProt Q5TC63 1-336)
chain: MQPAERSRVPRIDPYGFERPEDFDDAAYEKFFSSYLVTLTRRAIKWSRLLQGGGVPRSRTVKRYVRKGVPLEHRARVWMVLSGAQAQMDQNPGYYHQLLQGERNPRLEDAIRTDLNRTFPDNVKFRKTTDPCLQRTLYNVLLAYGHHNQGVGYCQGMNFIAGYLILITNNEEESFWLLDALVGRILPDYYSPAMLGLKTDQEVLGELVRAKLPAVGALMERLGVLWTLLVSRWFICLFVDILPVETVLRIWDCLFNEGSKIIFRVALTLIKQHQELILEATSVPDICDKFKQITKGSFVMECHTFMQKIFSEPGSLSMATVAKLRESCRARLLAQG
B2: Rab26-Rluc8 (protein, UniProt Q9ULW5 1-256)
chain: MSRKKTPKSKGASTPAASTLPTANGARPARSGTALSGPDAPPNGPLQPGRPSLGGGVDFYDVAFKVMLVGDSGVGKTCLLVRFKDGAFLAGTFISTVGIDFRNKVLDVDGVKVKLQMWDTAGQERFRSVTHAYYRDAHALLLLYDVTNKASFDNIQAWLTEIHEYAQHDVALMLLGNKVDSAHERVVKREDGEKLAKEYGLPFMETSAKTGLNVDLAFTAIAKELKQRSMKAPSEPRFRLHDYVKREGRGASCCRP
B3: TBC1D8B (protein, UniProt Q0IIM8 1-1120)
chain: MWLKPEEVLLKNALKLWLMERSNDYFVLQRRRGYGEEGGGGLTGLLVGTLDSVLDSTAKVAPFRILHQTPDSQVYLSIACGANREEITKHWDWLEQNIMKTLSVFDSNEDITNFVQGKIRGLIAEEGKHCFAKEDDPEKFREALLKFEKCFGLPEKEKLVTYYSCSYWKGRVPCQGWLYLSTNFLSFYSFLLGSEIKLIISWDEVSKLEKTSNVILTESIHVCSQGENHYFSMFLHINQTYLLMEQLANYAIRRLFDKETFDNDPVLYNPLQITKRGLENRAHSEQFNAFFRLPKGESLKEVHECFLWVPFSHFNTHGKMCISENYICFASQDGNQCSVIIPLREVLAIDKTNDSSKSVIISIKGKTAFRFHEVKDFEQLVAKLRLRCGAASTQYHDISTELAISSESTEPSDNFEVQSLTSQRECSKTVNTEALMTVFHPQNLETLNSKMLKEKMKEQSWKILFAECGRGVSMFRTKKTRDLVVRGIPETLRGELWMLFSGAVNDMATNPDYYTEVVEQSLGTCNLATEEIERDLRRSLPEHPAFQSDTGISALRRVLTAYAYRNPKIGYCQAMNILTSVLLLYAKEEEAFWLLVAVCERMLPDYFNRRIIGALVDQAVFEELIRDHLPQLTEHMTDMTFFSSVSLSWFLTLFISVLPIESAVNVVDCFFYDGIKAILQLGLAILDYNLDKLLTCKDDAEAVTALNRFFDNVTNKDSPLPSNVQQGSNVSDEKTSHTRVDITDLIRESNEKYGNIRYEDIHSMRCRNRLYVIQTLEETTKQNVLRVVSQDVKLSLQELDELYVIFKKELFLSCYWCLGCPVLKHHDPSLPYLEQYQIDCQQFRALYHLLSPWAHSANKDSLALWTFRLLDENSDCLINFKEFSSAIDIMYNGSFTEKLKLLFKLHIPPAYTEVKSKDASKGDELSKEELLYFSQLHVSKPANEKEAESAKHSPEKGKGKIDIQAYLSQWQDELFKKEENIKDLPRMNQSQFIQFSKTLYNLFHEDPEEESLYQAIAVVTSLLLRMEEVGRKLHSPTSSAKGFSGTVCGSGGPSEEKTGSHLEKDPCSFREEPQWSFAFEQILASLLNEPALVRFFEKPIDVKAKLENARISQLRSRTKM
B4: TBC1D20 (protein, UniProt Q96BZ9 1-403)
chain: MALRSAQGDGPTSGHWDGGAEKADFNAKRKKKVAEIHQALNSDPTDVAALRRMAISEGGLLTDEIRRKVWPKLLNVNANDPPPISGKNLRQMSKDYQQVLLDVRRSLRRFPPGMPEEQREGLQEELIDIILLILERNPQLHYYQGYHDIVVTFLLVVGERLATSLVEKLSTHHLRDFMDPTMDNTKHILNYLMPIIDQVNPELHDFMQSAEVGTIFALSWLITWFGHVLSDFRHVVRLYDFFLACHPLMPIYFAAVIVLYREQEVLDCDCDMASVHHLLSQIPQDLPYETLISRAGDLFVQFPPSELAREAAAQQQAERTAASTFKDFELASAQQRPDMVLRQRFRGLLRPEDRTKDVLTKPRTNRFVKLAVMGLTVALGAAALAVVKSALEWAPKFQLQLFP
B5: TBC1D22A (protein, UniProt Q8WUA7 1-517)
chain: MASDGARKQFWKRSNSKLPGSIQHVYGAQHPPFDPLLHGTLLRSTAKMPTTPVKAKRVSTFQEFESNTSDAWDAGEDDDELLAMAAESLNSEVVMETANRVLRNHSQRQGRPTLQEGPGLQQKPRPEAEPPSPPSGDLRLVKSVSESHTSCPAESASDAAPLQRSQSLPHSATVTLGGTSDPSTLSSSALSEREASRLDKFKQLLAGPNTDLEELRRLSWSGIPKPVRPMTWKLLSGYLPANVDRRPATLQRKQKEYFAFIEHYYDSRNDEVHQDTYRQIHIDIPRMSPEALILQPKVTEIFERILFIWAIRHPASGYVQGINDLVTPFFVVFICEYIEAEEVDTVDVSGVPAEVLCNIEADTYWCMSKLLDGIQDNYTFAQPGIQMKVKMLEELVSRIDEQVHRHLDQHEVRYLQFAFRWMNNLLMREVPLRCTIRLWDTYQSEPDGFSHFHLYVCAAFLVRWRKEILEEKDFQELLLFLQNLPTAHWDDEDISLLLAEAYRLKFAFADAPNHYKK
B6: RN-tre (protein, UniProt Q92738 1-828)
chain: MNSDQDVALKLAQERAEIVAKYDRGREGAEIEPWEDADYLVYKVTDRFGFLHEEELPDHNVAVERQKHLEIERTTKWLKMLKGWEKYKNTEKFHRRIYKGIPLQLRGEVWALLLEIPKMKEETRDLYSKLKHRARGCSPDIRQIDLDVNRTFRDHIMFRDRYGVKQQSLFHVLAAYSIYNTEVGYCQGMSQITALLLMYMNEEDAFWALVKLFSGPKHAMHGFFVQGFPKLLRFQEHHEKILNKFLSKLKQHLDSQEIYTSFYTMKWFFQCFLDRTPFTLNLRIWDIYIFEGERVLTAMSYTILKLHKKHLMKLSMEELVEFFQETLAKDFFFEDDFVIEQLQISMTELKRAKLDLPEPGKEDEYPKKPLGQLPPELQSWGVHHLSNGQRSVGRPSPLASGRRESGAPHRRHEHSPHPQSRTGTPERAQPPRRKSVEEESKKLKDEADFQRKLPSGPQDSSRQYNHAAANQNSNATSNIRKEFVPKWNKPSDVSATERTAKYTMEGKGRAAHPALAVTVPGPAEVRVSNVRPKMKALDAEDGKRGSTASQYDNVPGPELDSGASVEEALERAYSQSPRHALYPPSPRKHAEPSSSPSKVSNKFTFKVQPPSHARYPSQLDGEARGLAHPPSYSNPPVYHGNSPKHFPTANSSFASPQFSPGTQLNPSRRPHGSTLSVSASPEKSYSRPSPLVLPSSRIEVLPVDTGAGGYSGNSGSPKNGKLIIPPVDYLPDNRTWSEVSYTYRPETQGQSWTRDASRGNLPKYSAFQLAPFQDHGLPAVSVDSPVRYKASPAAEDASPSGYPYSGPPPPAYHYRNRDGLSIQESVLL

Amino acid sequences for entries named in this document (tags omitted).
UniProt P19328: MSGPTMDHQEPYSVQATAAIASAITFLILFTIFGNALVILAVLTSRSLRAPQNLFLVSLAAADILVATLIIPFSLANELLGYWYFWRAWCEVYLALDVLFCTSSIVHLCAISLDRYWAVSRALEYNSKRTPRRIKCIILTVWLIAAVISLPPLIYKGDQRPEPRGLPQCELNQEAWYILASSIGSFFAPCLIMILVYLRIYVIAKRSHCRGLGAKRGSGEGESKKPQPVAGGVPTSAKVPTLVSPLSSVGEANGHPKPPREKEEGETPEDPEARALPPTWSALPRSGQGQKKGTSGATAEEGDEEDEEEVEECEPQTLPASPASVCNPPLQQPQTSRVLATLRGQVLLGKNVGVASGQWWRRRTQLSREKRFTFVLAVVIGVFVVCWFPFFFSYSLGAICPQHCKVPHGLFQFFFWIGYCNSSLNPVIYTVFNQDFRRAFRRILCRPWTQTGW
UniProt Q92609: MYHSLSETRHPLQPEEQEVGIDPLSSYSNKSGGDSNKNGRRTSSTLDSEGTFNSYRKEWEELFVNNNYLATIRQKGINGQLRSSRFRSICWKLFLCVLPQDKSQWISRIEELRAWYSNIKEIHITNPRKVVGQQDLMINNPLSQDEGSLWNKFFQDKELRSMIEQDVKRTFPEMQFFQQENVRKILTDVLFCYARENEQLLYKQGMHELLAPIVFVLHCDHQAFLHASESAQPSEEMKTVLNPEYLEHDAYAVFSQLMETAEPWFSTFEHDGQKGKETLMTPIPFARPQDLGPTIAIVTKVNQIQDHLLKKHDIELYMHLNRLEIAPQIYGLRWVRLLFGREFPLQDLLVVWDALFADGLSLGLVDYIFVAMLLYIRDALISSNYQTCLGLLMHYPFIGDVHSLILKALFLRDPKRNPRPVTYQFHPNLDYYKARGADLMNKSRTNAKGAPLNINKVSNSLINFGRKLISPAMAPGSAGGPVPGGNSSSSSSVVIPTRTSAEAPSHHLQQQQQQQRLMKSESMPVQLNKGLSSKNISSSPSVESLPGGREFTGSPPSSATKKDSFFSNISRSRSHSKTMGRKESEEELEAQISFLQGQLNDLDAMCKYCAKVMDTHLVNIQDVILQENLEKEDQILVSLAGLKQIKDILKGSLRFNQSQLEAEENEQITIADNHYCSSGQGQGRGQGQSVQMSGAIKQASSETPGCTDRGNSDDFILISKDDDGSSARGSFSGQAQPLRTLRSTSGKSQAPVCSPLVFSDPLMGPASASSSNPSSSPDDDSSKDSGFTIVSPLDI

What was measured:
[1] = molecular target: T1, GST-Rab26 (UniProt Q9ULW5); experiment: pull-down; GST-Rab26 (wild type or mutant) fusion proteins (MagneGST pulldown system) incubated with total HEK293 cell lysates expressing TBC proteins or TBC1D6 domains; 500 μL binding buffer, 20 mM Tris-HCl pH 7.5, 140 m NaCl, 1% Nonidet P-40, 4 h at 4°C; bound proteins detected by immunoblotting; only the target purified
T1 sequence: B2 chain

[2] = molecular target: T2, GST-Rab26T77N (UniProt Q9ULW5); experiment: as above
T2 sequence: B2 chain with T77N

[3] = molecular target: T1, GST-Rab26; experiment: as above; remark: listed apart in the source
[4] = molecular target: T3, GST-Rab26Q123L (UniProt Q9ULW5); experiment: as above
T3 sequence: B2 chain with Q123L

[5] = molecular target: α2B-AR-Venus (UniProt P19328); experiment: FRET or BRET; live cell BRET in HEK293 cells transfected with 0.1 μg Rab-Rluc8 and 1.5 μg α2B-AR-Venus plus 1.0 μg pCMV-myc vector or myc-TBC for 36 h

Molecule	binding [3]	other results
TBC1D5 (from UniProt Q92609 1-795)		binding [1]: no binding
B1	binds	binding [2]: binds; binding [4]: binds
B2		binding [5]: binds
B3	no binding	
B4	no binding	
B5	no binding	
B6	no binding	

From paper PMC6639060
